# Results are given in words; binding and its absence hold for the method and conditions named. Binding seen in cells or lysates may run through a third protein. Binding can be weak; no strength is given.
# Sequences of proteins named here, by UniProt entry; tags and fusion partners are left off. A change or cut given only in a name is not applied to a line headed by its entry.
# UniProt P02525: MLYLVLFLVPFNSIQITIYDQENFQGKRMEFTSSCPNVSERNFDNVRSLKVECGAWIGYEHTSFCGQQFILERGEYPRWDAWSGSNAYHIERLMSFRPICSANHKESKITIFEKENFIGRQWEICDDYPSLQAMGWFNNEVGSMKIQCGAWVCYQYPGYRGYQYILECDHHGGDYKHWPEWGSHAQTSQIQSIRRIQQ
# B1: protein tyrosine phosphatase 1B (PTP1B), endogenous in mouse astrocytes (enzyme, UniProt P35821 1-432)
# chain: MEMEKEFEEIDKAGNWAAIYQDIRHEASDFPCKVAKLPKNKNRNRYRDVSPFDHSRIKLHQEDNDYINASLIKMEEAQRSYILTQGPLPNTCGHFWEMVWEQKSRGVVMLNRIMEKGSLKCAQYWPQQEEKEMVFDDTGLKLTLISEDVKSYYTVRQLELENLTTKETREILHFHYTTWPDFGVPESPASFLNFLFKVRESGSLSLEHGPIVVHCSAGIGRSGTFCLADTCLLLMDKRKDPSSVDIKKVLLEMRRFRMGLIQTADQLRFSYLAVIEGAKFIMGDSSVQDQWKELSREDLDLPPEHVPPPPRPPKRTLEPHNGKCKELFSSHQWVSEETCGDEDSLAREEGRAQSSAMHSVSSMSPDTEVRRRMVGGGLQSAQASVPTEEELSSTEEEHKAHWPSHWKPFLVNVCMATLLATGAYLCYRVCFH
# Biological target: βA1-crystallin-mCherry (mouse) (UniProt P02525)
# Test: co-IP; RFP-magnetic beads (Chromotek) on RIPA lysates of WT and Cryba1 KO mouse astrocytes transfected for 48 h with mCherry constructs; 2 h at 4 °C; washed in 10 mM Tris/Cl pH 7.5, 150 mM NaCl, 0.5 mM EDTA; western blot for PTP1B
binder,measurement,value
B1,binding,binds
